Data from article PMC4608832, “Synthesis of New 4-Aminoquinolines and Evaluation of Their In Vitro Activity against Chloroquine-Sensitive and Chloroquine-Resistant Plasmodium falciparum” (PLoS ONE, 2015).

Test system: P. falciparum Dd2
Test: In vitro antiplasmodial activity, 3H-hypoxanthine incorporation, strain Dd2
Assay type: cell-based, Plasmodium falciparum
Details: RI = IC50 Dd2/IC50 3D7

With `CCN(CC)Cc1cc(Nc2ccnc3cc(Cl)ccc23)ccc1O` [AQ, amodiaquine, reference compound] the “Resistance Index Dd2/3D7” value (laboratory B) was 0.9.

With `CCN(CC)Cc1ccccc1CNc1ccnc2cc(Cl)ccc12` [Compound 1, 7-Chloro-N-(2-((diethylamino)methyl)benzyl)quinolin-4-amine] the “Resistance Index Dd2/3D7” value (laboratory A) was 1.6 and the “Resistance Index Dd2/3D7” value (laboratory B) was 0.9.

With `CCN(CC)Cc1cccc(CNc2ccnc3cc(Cl)ccc23)c1` [Compound 2, 7-Chloro-N-(3-((diethylamino)methyl)benzyl)quinolin-4-amine] the “Resistance Index Dd2/3D7” value (laboratory A) was 1.4 and the “Resistance Index Dd2/3D7” value (laboratory B) was 1.0.

`CCN(CC)Cc1ccc(CNc2ccnc3cc(Cl)ccc23)cc1` [Compound 3, 7-Chloro-N-(4-((diethylamino)methyl)benzyl)quinolin-4-amine] was tested, and the “Resistance Index Dd2/3D7” value (laboratory A) was 1.8 and the “Resistance Index Dd2/3D7” value (laboratory B) was 1.1.

With `CCN(CC)Cc1ccc(-c2ccc(CNc3ccnc4cc(Cl)ccc34)cc2)cc1` [Compound 4, 7-Chloro-N-((4’-((diethylamino)methyl)-[1,1’-biphenyl]-4-yl)methyl)quinolin-4-amine] the “Resistance Index Dd2/3D7” value (laboratory A) was 1.4 and the “Resistance Index Dd2/3D7” value (laboratory B) was 1.1.
